The values that follow come from PMC4484629 (Arthritis Research & Therapy, 2015).

The series in a line: general procedure: Fmoc solid-phase peptide synthesis; Tentagel Rink Amide; HBTU/DIPEA; OxymaPure/DIC for Arg/Cit573. The conditions noted are these: whole synthesis.

cyclo-CHHP GIA EFP SXG KSS SYS KQF had a crude yield of 46%.
